The other results are listed elsewhere or left out.
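Also: competitive chemoproteomic profiling in live THP-1 cells with an iodoacetamide desthiobiotin (IA-DTB) probe, comparing probe-labelled peptide intensities in compound-treated cells against DMSO-treated controls.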

The chains behind the UniProt entries cited, without tags or fusion partners. Where a name states a change or a piece, a line headed by the entry shows the natural chain unless it says otherwise.
UniProt Q92616, whole entry, looked up: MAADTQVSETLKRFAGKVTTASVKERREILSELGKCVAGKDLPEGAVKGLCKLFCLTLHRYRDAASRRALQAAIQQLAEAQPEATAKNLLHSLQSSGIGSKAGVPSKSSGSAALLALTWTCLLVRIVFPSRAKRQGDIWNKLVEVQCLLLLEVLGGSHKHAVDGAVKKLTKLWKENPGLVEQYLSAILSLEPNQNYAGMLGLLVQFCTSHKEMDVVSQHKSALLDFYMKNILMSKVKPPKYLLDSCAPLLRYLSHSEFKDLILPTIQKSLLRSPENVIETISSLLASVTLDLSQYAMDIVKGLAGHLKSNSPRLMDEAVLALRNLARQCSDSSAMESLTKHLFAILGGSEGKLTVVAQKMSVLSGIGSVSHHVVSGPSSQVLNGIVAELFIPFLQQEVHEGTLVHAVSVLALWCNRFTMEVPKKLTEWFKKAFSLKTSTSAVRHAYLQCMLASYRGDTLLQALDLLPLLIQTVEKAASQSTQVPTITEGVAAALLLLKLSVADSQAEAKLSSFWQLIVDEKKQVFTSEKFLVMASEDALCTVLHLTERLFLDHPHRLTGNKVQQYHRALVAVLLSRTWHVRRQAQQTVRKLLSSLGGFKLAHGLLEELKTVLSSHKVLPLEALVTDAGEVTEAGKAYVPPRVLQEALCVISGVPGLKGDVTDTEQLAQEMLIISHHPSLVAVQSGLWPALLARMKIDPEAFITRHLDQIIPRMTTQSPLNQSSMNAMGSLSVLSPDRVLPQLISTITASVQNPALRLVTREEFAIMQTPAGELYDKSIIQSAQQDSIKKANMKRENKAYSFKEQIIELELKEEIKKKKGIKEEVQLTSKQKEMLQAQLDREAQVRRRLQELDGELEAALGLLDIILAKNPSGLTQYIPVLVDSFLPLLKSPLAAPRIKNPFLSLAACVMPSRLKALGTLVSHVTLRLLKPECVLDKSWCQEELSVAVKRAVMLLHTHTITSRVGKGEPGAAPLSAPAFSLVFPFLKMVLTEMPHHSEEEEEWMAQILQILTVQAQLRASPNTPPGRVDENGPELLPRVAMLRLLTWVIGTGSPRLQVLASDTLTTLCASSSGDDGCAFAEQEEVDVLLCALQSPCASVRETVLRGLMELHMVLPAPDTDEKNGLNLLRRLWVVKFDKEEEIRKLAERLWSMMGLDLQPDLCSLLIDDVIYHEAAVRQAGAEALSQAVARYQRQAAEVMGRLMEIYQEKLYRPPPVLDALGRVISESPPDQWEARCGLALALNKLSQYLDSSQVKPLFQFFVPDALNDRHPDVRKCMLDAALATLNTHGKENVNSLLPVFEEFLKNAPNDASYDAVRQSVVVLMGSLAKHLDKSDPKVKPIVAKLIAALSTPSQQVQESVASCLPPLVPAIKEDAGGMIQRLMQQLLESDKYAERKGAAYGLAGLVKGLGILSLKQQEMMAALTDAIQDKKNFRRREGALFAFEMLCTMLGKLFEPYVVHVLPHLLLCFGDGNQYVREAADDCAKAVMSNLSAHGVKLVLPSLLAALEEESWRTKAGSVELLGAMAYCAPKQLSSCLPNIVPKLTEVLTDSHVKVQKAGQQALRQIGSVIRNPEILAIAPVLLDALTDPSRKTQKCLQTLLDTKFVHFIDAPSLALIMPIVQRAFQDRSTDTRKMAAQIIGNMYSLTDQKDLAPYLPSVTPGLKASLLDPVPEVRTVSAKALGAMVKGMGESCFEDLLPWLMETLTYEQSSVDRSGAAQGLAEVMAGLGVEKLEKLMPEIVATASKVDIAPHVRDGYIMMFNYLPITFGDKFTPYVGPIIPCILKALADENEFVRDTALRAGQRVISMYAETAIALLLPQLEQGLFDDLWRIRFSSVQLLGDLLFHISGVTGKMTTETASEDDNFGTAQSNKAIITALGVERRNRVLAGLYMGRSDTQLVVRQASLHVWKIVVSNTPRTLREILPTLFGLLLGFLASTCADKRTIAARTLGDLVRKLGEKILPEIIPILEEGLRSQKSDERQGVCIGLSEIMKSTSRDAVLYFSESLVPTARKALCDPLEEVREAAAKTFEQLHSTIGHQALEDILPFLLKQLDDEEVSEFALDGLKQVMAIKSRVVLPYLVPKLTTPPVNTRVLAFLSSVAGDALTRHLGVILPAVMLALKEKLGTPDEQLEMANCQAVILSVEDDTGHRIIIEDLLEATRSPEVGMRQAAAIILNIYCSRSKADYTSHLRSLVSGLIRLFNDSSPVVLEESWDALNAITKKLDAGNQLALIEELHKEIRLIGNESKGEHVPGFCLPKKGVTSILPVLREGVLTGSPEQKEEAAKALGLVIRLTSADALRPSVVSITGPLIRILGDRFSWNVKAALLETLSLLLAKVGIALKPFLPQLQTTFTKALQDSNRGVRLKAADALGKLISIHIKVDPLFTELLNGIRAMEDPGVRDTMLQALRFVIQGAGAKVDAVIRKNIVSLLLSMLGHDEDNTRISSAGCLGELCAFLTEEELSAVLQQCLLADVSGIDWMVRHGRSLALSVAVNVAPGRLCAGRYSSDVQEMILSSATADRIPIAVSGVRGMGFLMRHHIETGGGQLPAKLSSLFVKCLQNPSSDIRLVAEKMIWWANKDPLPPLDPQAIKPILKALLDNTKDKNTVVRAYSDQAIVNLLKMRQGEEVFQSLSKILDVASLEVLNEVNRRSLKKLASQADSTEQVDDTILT
UniProt Q04446: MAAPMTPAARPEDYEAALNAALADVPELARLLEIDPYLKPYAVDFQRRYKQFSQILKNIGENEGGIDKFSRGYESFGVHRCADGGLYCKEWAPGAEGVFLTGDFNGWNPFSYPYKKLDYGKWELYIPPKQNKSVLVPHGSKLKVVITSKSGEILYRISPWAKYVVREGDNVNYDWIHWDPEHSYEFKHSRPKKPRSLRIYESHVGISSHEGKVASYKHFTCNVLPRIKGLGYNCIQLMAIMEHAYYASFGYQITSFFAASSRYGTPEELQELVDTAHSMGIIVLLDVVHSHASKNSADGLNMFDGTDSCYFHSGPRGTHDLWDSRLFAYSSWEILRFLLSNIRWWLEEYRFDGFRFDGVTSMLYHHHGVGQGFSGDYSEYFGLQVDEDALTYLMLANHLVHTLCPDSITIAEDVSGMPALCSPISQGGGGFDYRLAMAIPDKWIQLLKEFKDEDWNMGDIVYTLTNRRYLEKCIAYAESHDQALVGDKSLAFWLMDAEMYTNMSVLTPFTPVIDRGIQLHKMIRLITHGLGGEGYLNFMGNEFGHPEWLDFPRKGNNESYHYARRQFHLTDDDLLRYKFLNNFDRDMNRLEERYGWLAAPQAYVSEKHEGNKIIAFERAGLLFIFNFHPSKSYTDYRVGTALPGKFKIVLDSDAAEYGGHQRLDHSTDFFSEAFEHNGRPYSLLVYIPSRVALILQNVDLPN
UniProt Q8IWJ2: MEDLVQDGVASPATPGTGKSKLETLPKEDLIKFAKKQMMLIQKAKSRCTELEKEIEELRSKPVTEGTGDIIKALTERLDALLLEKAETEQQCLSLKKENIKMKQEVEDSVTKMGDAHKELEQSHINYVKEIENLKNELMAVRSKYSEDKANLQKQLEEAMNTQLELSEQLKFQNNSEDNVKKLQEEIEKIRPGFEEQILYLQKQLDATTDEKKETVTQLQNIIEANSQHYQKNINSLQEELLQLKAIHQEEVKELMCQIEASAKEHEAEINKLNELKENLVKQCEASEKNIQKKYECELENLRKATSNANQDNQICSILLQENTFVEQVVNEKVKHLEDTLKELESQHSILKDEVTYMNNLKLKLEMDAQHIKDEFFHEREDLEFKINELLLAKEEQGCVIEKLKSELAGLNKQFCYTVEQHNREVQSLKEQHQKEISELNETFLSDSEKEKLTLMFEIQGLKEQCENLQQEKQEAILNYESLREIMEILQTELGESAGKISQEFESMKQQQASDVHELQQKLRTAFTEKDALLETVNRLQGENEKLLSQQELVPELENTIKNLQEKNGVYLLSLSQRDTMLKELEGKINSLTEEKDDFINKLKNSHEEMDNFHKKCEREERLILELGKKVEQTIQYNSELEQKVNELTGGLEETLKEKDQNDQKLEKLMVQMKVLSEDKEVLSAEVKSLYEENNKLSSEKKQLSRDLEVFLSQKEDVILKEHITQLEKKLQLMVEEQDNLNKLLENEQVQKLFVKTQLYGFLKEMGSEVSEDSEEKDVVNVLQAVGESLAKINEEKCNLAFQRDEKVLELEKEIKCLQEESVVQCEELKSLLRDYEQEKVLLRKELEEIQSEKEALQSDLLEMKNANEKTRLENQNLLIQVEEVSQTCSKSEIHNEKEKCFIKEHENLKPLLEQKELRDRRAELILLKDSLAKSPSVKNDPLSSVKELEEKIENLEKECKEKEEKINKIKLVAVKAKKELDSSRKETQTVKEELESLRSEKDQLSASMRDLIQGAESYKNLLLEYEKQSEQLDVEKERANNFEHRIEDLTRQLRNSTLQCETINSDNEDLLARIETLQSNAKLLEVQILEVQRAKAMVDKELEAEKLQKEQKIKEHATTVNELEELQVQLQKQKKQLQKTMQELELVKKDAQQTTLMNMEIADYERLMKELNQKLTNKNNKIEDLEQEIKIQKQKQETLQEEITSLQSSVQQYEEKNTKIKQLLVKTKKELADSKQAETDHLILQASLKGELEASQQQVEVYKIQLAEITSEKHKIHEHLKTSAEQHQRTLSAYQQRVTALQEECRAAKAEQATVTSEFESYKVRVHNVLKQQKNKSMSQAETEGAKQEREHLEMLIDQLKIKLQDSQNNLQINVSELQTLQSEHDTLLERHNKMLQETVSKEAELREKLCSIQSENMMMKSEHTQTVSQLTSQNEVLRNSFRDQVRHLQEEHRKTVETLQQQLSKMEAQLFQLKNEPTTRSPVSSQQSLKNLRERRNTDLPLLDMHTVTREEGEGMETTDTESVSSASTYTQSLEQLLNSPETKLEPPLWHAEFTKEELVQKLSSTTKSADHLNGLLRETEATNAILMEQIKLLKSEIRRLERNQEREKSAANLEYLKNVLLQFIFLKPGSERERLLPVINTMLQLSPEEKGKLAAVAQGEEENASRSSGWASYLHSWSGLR
UniProt P48506: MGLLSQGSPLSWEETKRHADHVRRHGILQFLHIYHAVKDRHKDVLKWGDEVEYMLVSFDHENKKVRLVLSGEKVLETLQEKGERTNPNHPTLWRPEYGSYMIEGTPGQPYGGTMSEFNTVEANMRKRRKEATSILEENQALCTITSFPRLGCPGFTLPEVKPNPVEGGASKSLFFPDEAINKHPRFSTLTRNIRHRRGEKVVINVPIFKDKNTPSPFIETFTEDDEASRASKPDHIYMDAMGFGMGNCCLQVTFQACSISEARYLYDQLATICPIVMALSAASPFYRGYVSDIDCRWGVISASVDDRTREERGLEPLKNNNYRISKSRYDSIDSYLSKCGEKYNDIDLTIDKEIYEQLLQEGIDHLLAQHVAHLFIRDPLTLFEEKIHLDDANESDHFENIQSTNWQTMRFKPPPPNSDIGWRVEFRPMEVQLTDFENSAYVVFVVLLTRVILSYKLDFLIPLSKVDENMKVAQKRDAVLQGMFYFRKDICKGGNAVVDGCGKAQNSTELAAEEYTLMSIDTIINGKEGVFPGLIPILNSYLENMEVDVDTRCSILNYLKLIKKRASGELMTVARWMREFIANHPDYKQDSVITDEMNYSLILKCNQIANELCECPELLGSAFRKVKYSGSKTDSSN
UniProt Q10472: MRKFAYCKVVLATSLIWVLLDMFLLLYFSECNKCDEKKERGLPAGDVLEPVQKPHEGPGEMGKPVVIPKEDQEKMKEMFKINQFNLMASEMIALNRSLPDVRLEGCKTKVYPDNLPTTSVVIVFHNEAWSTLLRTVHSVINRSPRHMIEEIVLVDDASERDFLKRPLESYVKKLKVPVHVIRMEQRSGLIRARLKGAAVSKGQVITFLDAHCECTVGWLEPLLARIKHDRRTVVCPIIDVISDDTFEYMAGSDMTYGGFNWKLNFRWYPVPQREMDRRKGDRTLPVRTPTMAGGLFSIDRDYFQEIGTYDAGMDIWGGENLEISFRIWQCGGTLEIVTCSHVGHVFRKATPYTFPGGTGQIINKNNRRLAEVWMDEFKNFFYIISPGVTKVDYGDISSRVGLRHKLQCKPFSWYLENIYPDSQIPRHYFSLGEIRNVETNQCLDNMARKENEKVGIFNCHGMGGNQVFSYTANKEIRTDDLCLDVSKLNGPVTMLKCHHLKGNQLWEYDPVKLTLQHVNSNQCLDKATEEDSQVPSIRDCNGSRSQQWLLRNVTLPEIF
UniProt Q8NB37: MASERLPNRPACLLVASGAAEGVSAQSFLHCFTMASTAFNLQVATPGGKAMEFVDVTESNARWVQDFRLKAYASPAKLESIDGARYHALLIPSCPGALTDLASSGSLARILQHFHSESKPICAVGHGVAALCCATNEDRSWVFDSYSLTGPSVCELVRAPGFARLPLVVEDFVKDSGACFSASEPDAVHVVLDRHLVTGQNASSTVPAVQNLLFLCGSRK

Compound in the first assay: CC1Cc2ccccc2N1C(=O)C1CCCN(C1)C(=O)CCl (mixture of isomers) [TRIM25 ligand 11 (diastereomer mixture)]
Briefly: probe-labelled cysteine peptide fold change vs DMSO (competition) (log2 fold change); higher = less target engagement (more negative = stronger competition). The note with it: 10 µM; THP-1; incubation time: 4 h.
Take “GATAD2A_Q86YP4_420_EPYMCAQCK (UniProt Q86YP4)”: the “probe-labelled cysteine peptide fold change” value worked out at 0.0109.
As to “GALT_P07902_130_VMCFHPWSDVTLPLMSVPEIR (UniProt P07902)”, the “probe-labelled cysteine peptide fold change” value was found to be 0.132.
Consider “GFPT1_Q06210_570_GYHYATCLEGALK (UniProt Q06210)”, for which the “probe-labelled cysteine peptide fold change” value came to 0.0796.
For the target “GCN1_Q92616_55_LFCLTLHR (UniProt Q92616)”, the “probe-labelled cysteine peptide fold change” value is -0.0639.
“GBE1_Q04446_309_NSADGLNMFDGTDSCYFHSGPR (UniProt Q04446)”: the “probe-labelled cysteine peptide fold change” value is 0.049.
“GANAB_Q14697_423_DEADVLEVDQGFDDHNLPCDVIWLDIEHADGK (UniProt Q14697)”: the “probe-labelled cysteine peptide fold change” value came out at 0.163.
Consider “GEMIN4_P57678_210_SDPDACPTMPLLAMLLR (UniProt P57678)”, for which the “probe-labelled cysteine peptide fold change” value was -0.0524.
For “GALK1_P51570_243_QCEEVAR (UniProt P51570)”, the “probe-labelled cysteine peptide fold change” value is 0.0249.
Still for that read-out and setting: then “GCC2_Q8IWJ2_1306_VTALQEECR (UniProt Q8IWJ2)”, with 0.0917.
Same read-out and setting: then “GIT1_Q9Y2X7_576_KGVSASAVPFTPSSPLLSCSQEGSR (UniProt Q9Y2X7)”, with -0.159; and “GCN1_Q92616_449_HAYLQCMLASYR (UniProt Q92616)”, with 0.0262.
For the target “GFER_P55789_165_ACFTQWLCHLHNEVNR (UniProt P55789)”, the “probe-labelled cysteine peptide fold change” value is 0.00107.
On to “GCN1_Q92616_1535_QLSSCLPNIVPK (UniProt Q92616)”, for which the “probe-labelled cysteine peptide fold change” value is -0.0747.
In the case of “GALNT2_Q10471_229_VLTFLDSHCECNEHWLEPLLER (UniProt Q10471)”, the “probe-labelled cysteine peptide fold change” value stood at 0.0588.
Consider “GCN1_Q92616_1781_FTPYVGPIIPCILK (UniProt Q92616)”, for which the “probe-labelled cysteine peptide fold change” value was determined as 0.12.
Consider “GCLC_P48506_295_GYVSDIDCR (UniProt P48506)”, for which the “probe-labelled cysteine peptide fold change” value was found to be 0.0316.
On the same count and under the same terms, next, “GDI1_P31150_282_QLICDPSYIPDR (UniProt P31150)”: 0.0147; “GCC2_Q8IWJ2_1061_NSTLQCETINSDNEDLLAR (UniProt Q8IWJ2)”: 0.026; “GARS_P41250_466+471_SCYDLSCHAR (UniProt P41250)”: 0.0931.
Take “GAPVD1_Q14C86_1129_LALCSADSVAFPVLTHSTR (UniProt Q14C86)”: the “probe-labelled cysteine peptide fold change” value came to 0.0263.
On the same count and under the same terms, then “GARS_P41250_616_CSVLPLSQNQEFMPFVK (UniProt P41250)”, with 0.0543; and “GBF1_Q92538_1543_TLWAHCWCPLLQGIACLCCDAR (UniProt Q92538)”, with -0.132; and “GFM1_Q96RP9_706_SCTEGKGEYTMEYSR (UniProt Q96RP9)”, with -0.199.
As for “GDI2_P50395_414_TYDATTHFETTCDDIK (UniProt P50395)”, the “probe-labelled cysteine peptide fold change” value is 0.0458.
As for “GAS2L1_Q99501_276_CSSTAHRPPQPR (UniProt Q99501)”, the “probe-labelled cysteine peptide fold change” value amounted to 0.176.
With “GCN1_Q92616_1482_EAADDCAK (UniProt Q92616)”, the “probe-labelled cysteine peptide fold change” value stood at 0.0124.
Consider “GARS_P41250_442_QHMENEMAHYACDCWDAESK (UniProt P41250)”, for which the “probe-labelled cysteine peptide fold change” value is 0.123.
Consider “GEMIN5_Q8TEQ6_501_KTVYTLAWGPPVPPMSLGGEGDRPSLALYSCGGEGIVLQHNPWK (UniProt Q8TEQ6)”, for which the “probe-labelled cysteine peptide fold change” value is -0.0276.
Take “GALNT1_Q10472_212+214_GQVITFLDAHCECTVGWLEPLLAR (UniProt Q10472)”: the “probe-labelled cysteine peptide fold change” value turned out to be 0.115.
On the same count and under the same terms, next, “GATD1_Q8NB37_94_YHALLIPSCPGALTDLASSGSLAR (UniProt Q8NB37)”: -0.12; “GCN1_Q92616_932_LLKPECVLDK (UniProt Q92616)”: -0.0621; “GDI2_P50395_282_QLICDPSYVK (UniProt P50395)”: -0.0657.
As to “GBP4_Q96PP9_374_LPTDTLQELLDVHAACER (UniProt Q96PP9)”, the “probe-labelled cysteine peptide fold change” value came out at 0.216.
Still for that read-out and setting: next, “GARS_P41250_442+444_QHMENEMAHYACDCWDAESK (UniProt P41250)”: 0.111; “GATM_P50440_131_KAVAEIEEMCNILK (UniProt P50440)”: -0.271; “GCN1_Q92616_147_LVEVQCLLLLEVLGGSHK (UniProt Q92616)”: -0.0683.
For the target “GIT2_Q14161_11+14_SSEVCADCSGPDPSWASVNR (UniProt Q14161)”, the “probe-labelled cysteine peptide fold change” value was 0.117.
Same read-out and setting: then “GEMIN5_Q8TEQ6_1051_CYLGATCAYDAAK (UniProt Q8TEQ6)”, with -0.0553.
For the target GFM1_Q96RP9_706_SCTEGK (UniProt Q96RP9), the “probe-labelled cysteine peptide fold change” value stood at 0.057.

The assay is the same for the next values; noted with them: 50 µM; THP-1; incubation time: 4 h.
Take “GATAD2A_Q86YP4_420_EPYMCAQCK (UniProt Q86YP4)”: the “probe-labelled cysteine peptide fold change” value is -0.0417.
As for “GALT_P07902_130_VMCFHPWSDVTLPLMSVPEIR (UniProt P07902)”, the “probe-labelled cysteine peptide fold change” value is -0.0683.
In the case of “GFPT1_Q06210_570_GYHYATCLEGALK (UniProt Q06210)”, the “probe-labelled cysteine peptide fold change” value worked out at 0.0569.
Take “GCN1_Q92616_55_LFCLTLHR (UniProt Q92616)”: the “probe-labelled cysteine peptide fold change” value is -0.0156.
Turning to “GBE1_Q04446_309_NSADGLNMFDGTDSCYFHSGPR (UniProt Q04446)”, the “probe-labelled cysteine peptide fold change” value is -0.0355.
For “GANAB_Q14697_423_DEADVLEVDQGFDDHNLPCDVIWLDIEHADGK (UniProt Q14697)”, the “probe-labelled cysteine peptide fold change” value worked out at 0.058.
As for “GEMIN4_P57678_210_SDPDACPTMPLLAMLLR (UniProt P57678)”, the “probe-labelled cysteine peptide fold change” value is -0.394.
On to “GALK1_P51570_243_QCEEVAR (UniProt P51570)”, for which the “probe-labelled cysteine peptide fold change” value came to 0.153.
“GCC2_Q8IWJ2_1306_VTALQEECR (UniProt Q8IWJ2)”: the “probe-labelled cysteine peptide fold change” value worked out at 0.0121.
On to “GIT1_Q9Y2X7_576_KGVSASAVPFTPSSPLLSCSQEGSR (UniProt Q9Y2X7)”, for which the “probe-labelled cysteine peptide fold change” value is -0.26.
Regarding “GCN1_Q92616_449_HAYLQCMLASYR (UniProt Q92616)”, the “probe-labelled cysteine peptide fold change” value is 0.0277.
For the target “GFER_P55789_165_ACFTQWLCHLHNEVNR (UniProt P55789)”, the “probe-labelled cysteine peptide fold change” value amounted to 0.139.
As to “GCN1_Q92616_1535_QLSSCLPNIVPK (UniProt Q92616)”, the “probe-labelled cysteine peptide fold change” value worked out at 0.129.
With “GALNT2_Q10471_229_VLTFLDSHCECNEHWLEPLLER (UniProt Q10471)”, the “probe-labelled cysteine peptide fold change” value is 0.0629.
As to “GCN1_Q92616_1781_FTPYVGPIIPCILK (UniProt Q92616)”, the “probe-labelled cysteine peptide fold change” value turned out to be 0.17.
With “GCLC_P48506_295_GYVSDIDCR (UniProt P48506)”, the “probe-labelled cysteine peptide fold change” value came to 0.199.
On the same count and under the same terms, then “GDI1_P31150_282_QLICDPSYIPDR (UniProt P31150)”, with -0.064; and “GCC2_Q8IWJ2_1061_NSTLQCETINSDNEDLLAR (UniProt Q8IWJ2)”, with -0.141; and “GARS_P41250_466+471_SCYDLSCHAR (UniProt P41250)”, with -0.0052.
Same read-out and setting: next, “GAPVD1_Q14C86_1129_LALCSADSVAFPVLTHSTR (UniProt Q14C86)”: -0.0952; “GARS_P41250_616_CSVLPLSQNQEFMPFVK (UniProt P41250)”: -0.0554; “GBF1_Q92538_1543_TLWAHCWCPLLQGIACLCCDAR (UniProt Q92538)”: 0.0972.
Same read-out and setting: then “GFM1_Q96RP9_706_SCTEGKGEYTMEYSR (UniProt Q96RP9)”, with -0.212.
In the case of “GDI2_P50395_414_TYDATTHFETTCDDIK (UniProt P50395)”, the “probe-labelled cysteine peptide fold change” value was -0.0269.
Turning to “GAS2L1_Q99501_276_CSSTAHRPPQPR (UniProt Q99501)”, the “probe-labelled cysteine peptide fold change” value is -0.0492.
Take “GCN1_Q92616_1482_EAADDCAK (UniProt Q92616)”: the “probe-labelled cysteine peptide fold change” value was -0.115.
Regarding “GARS_P41250_442_QHMENEMAHYACDCWDAESK (UniProt P41250)”, the “probe-labelled cysteine peptide fold change” value is 0.111.
In the case of “GEMIN5_Q8TEQ6_501_KTVYTLAWGPPVPPMSLGGEGDRPSLALYSCGGEGIVLQHNPWK (UniProt Q8TEQ6)”, the “probe-labelled cysteine peptide fold change” value was -0.185.
Turning to “GALNT1_Q10472_212+214_GQVITFLDAHCECTVGWLEPLLAR (UniProt Q10472)”, the “probe-labelled cysteine peptide fold change” value turned out to be 0.0411.
Still for that read-out and setting: then “GATD1_Q8NB37_94_YHALLIPSCPGALTDLASSGSLAR (UniProt Q8NB37)”, with -0.0933; and “GCN1_Q92616_932_LLKPECVLDK (UniProt Q92616)”, with -0.00193.
As for “GDI2_P50395_282_QLICDPSYVK (UniProt P50395)”, the “probe-labelled cysteine peptide fold change” value was found to be 0.0312.
Regarding “GBP4_Q96PP9_374_LPTDTLQELLDVHAACER (UniProt Q96PP9)”, the “probe-labelled cysteine peptide fold change” value is 0.0274.
In the case of “GARS_P41250_442+444_QHMENEMAHYACDCWDAESK (UniProt P41250)”, the “probe-labelled cysteine peptide fold change” value was 0.00341.
With “GATM_P50440_131_KAVAEIEEMCNILK (UniProt P50440)”, the “probe-labelled cysteine peptide fold change” value is -0.2.
Same read-out and setting: then “GCN1_Q92616_147_LVEVQCLLLLEVLGGSHK (UniProt Q92616)”, with 0.15.
Still for that read-out and setting: then “GIT2_Q14161_11+14_SSEVCADCSGPDPSWASVNR (UniProt Q14161)”, with -0.284; and “GEMIN5_Q8TEQ6_1051_CYLGATCAYDAAK (UniProt Q8TEQ6)”, with 0.281; and GFM1_Q96RP9_706_SCTEGK (UniProt Q96RP9), with -0.000645.

For the origin of these results see the supplement of paper PMC12067093, “Discovery and optimisation of a covalent ligand for TRIM25 and its application to targeted protein ubiquitination” (Chemical Science, 2025).
